Results taken from PubChem BioAssay AID540256 (National Center for Advancing Translational Sciences (NCATS), 2011).
Out of some 300,000 compounds screened, about 3,700 (1.2%) were called active. Inconclusive means that the source gave no clear call. Such entries were picked first, then a sample of the others. Calls come from the whole dose curve; tested in HEK293 cells. Where the call is inconclusive, the potency comes from a doubtful curve fit.

test: qHTS for Inhibitors of binding or entry into cells for Lassa Virus; details: Lassa virus pseudotype entry inhibition, cell reporter; series mostly up to 37.9 µM; note: nearly all actives have a fitted effect of over 50% in size
Potency is the fitted concentration of half-maximal effect.

Row | SMILES | Potency
1 | Fc1ccc(/C=N/NC(=S)Nc2ccc(Cl)cc2)cc1F | inconclusive: 7.31 µM [activator, partial curve, poor fit]
2 | CCN(CC)S(=O)(=O)c1cc(C(=O)N(C)CC(=O)Nc2ccc(Cl)cc2)ccc1Cl | inconclusive: 10 µM [inhibitor, partial curve, poor fit]
3 | CCCCn1c(N)c(N(CCOC)C(=O)CSc2n[nH]c(-c3ccc(OC)cc3)n2)c(=O)[nH]c1=O | inactive
4 | Cn1ncc(Cl)c1C(=O)NNC(=O)Nc1cccc2ccccc12 | inactive
5 | CCOc1ccc(NC(=O)c2cccc(NC(=O)c3ccccc3)c2)cc1 | inactive
6 | CCN(CC)CCn1c(=S)[nH]c2ccc(Br)cc2c1=O | inconclusive: 35.5 µM [activator, single point]
7 | COC(=O)c1sccc1NC(=O)Nc1ccc(C)cc1 | inconclusive: 10 µM [activator, partial curve, poor fit]
8 | CC(C)CCNc1nc2c(S(=O)(=O)c3ccc(Br)cc3)nnn2c2ccsc12 | inactive
9 | COc1c(C(=O)Nc2ccc(Cc3ccncc3)cc2)ccc2ccccc12 | inconclusive: 1.78 µM [inhibitor, full curve, poor fit]
10 | Cc1ccccc1Cn1cc(NC(=O)c2nn(C)cc2Cl)cn1 | inconclusive: 35.5 µM [activator, single point]
11 | COC(=O)c1ccc(NC(=O)CCNS(=O)(=O)c2cccc3nonc23)cc1 | inconclusive: 0.92 µM [inhibitor, partial curve, poor fit]
12 | Cc1cc(F)ccc1NC(=O)CCCN(C)S(=O)(=O)c1ccc(F)cc1 | inconclusive: 6.31 µM [inhibitor, single point]
13 | Cc1cc(C(=O)Nc2cnc3ccccc3c2)ccc1[N+](=O)[O-] | inconclusive: 20 µM [activator, partial curve, poor fit]
14 | CN(C)S(=O)(=O)c1cccc(-c2nn(-c3ccccc3)cc2/C=C(\C#N)c2nc3ccccc3[nH]2)c1 | inactive
15 | c1ccc(NCc2nnc3n2CCCCC3)cc1 | inconclusive: 0.291 µM [inhibitor, full curve, poor fit]
16 | C=CCNC(=O)CSc1nnc(-c2ccncc2)n1CCc1ccccc1 | inconclusive: 1.26 µM [activator, single point]
17 | COc1ccccc1N1C(=O)NC(=O)/C(=C/c2ccc3c(c2)Cc2ccccc2-3)C1=O | inactive
18 | Cc1ccc(C2=NN(S(C)(=O)=O)C(c3ccc4nccnc4c3)C2)cc1 (stereo unspecified) | inconclusive: 16.4 µM [activator, single point]
19 | CCn1c(SCC(=O)Nc2cc(C)on2)nnc1-c1ccc(S(=O)(=O)N2CCN(C)CC2)cc1 | inconclusive: 3.26 µM [inhibitor, partial curve, poor fit]
20 | CCC(c1nnnn1CCc1ccccc1)N(Cc1ccco1)Cc1cc2c(C)ccc(C)c2[nH]c1=O (stereo unspecified) | inconclusive: 22.4 µM [inhibitor, partial curve, poor fit]
21 | c1cnc(N2CCN(Cc3c[nH]c4ccccc34)CC2)nc1 | inactive

As entered above:
Potency with `C=CCNC(=O)CSc1nnc(-c2ccncc2)n1CCc1ccccc1` is entered as inconclusive: 1.26 µM [activator, single point]
Potency with `CCN(CC)S(=O)(=O)c1cc(C(=O)N(C)CC(=O)Nc2ccc(Cl)cc2)ccc1Cl` is entered as inconclusive: 10 µM [inhibitor, partial curve, poor fit]
Potency with `CCC(c1nnnn1CCc1ccccc1)N(Cc1ccco1)Cc1cc2c(C)ccc(C)c2[nH]c1=O` (stereo unspecified) is entered as inconclusive: 22.4 µM [inhibitor, partial curve, poor fit]

Following part

Row | SMILES | Potency
22 | Cc1ccc(CNC(=O)C2CCCN(c3nnc(-n4c(C)ccc4C)s3)C2)cc1 (stereo unspecified) | inconclusive: 12.6 µM [inhibitor, single point]
23 | C/C=C/C=C/C(=O)OC(C)C(=O)Nc1cc([N+](=O)[O-])ccc1OC (stereo unspecified) | inconclusive: 35.5 µM [inhibitor, single point]
24 | O=C(CSc1ccc(Cl)cc1)Nc1ncccn1 | inactive
25 | Cc1cc(-c2nc3ccccc3[nH]2)ccc1N | inconclusive: 10 µM [inhibitor, partial curve, poor fit]
26 | Cc1c(NC2=C(Cl)C(=O)N(c3ccccc3)C2=O)c(=O)n(-c2ccccc2)n1C | inconclusive: 6.51 µM [inhibitor, partial curve, poor fit]
27 | CCOCCCNC(=O)c1cc(Cl)c(NC(=O)C2=C(C)OCCS2)cc1OC | inconclusive: 8.91 µM [inhibitor, partial curve, poor fit]
28 | CCOc1ccc(N2C(=O)CC(/C=C3/N(C)c4ccccc4C3(C)C)C2=O)cc1 (stereo unspecified) | inconclusive: 6.31 µM [inhibitor, single point]
29 | Nc1nc2c(c(=O)[nH]1)C(c1cccc3ccccc13)C1=C(N2)c2ccccc2C1=O (stereo unspecified) | inconclusive: 35.5 µM [inhibitor, single point]
30 | CCN(CC)S(=O)(=O)c1ccc(C(=O)NCc2cccs2)cc1 | active: 2.91 µM
31 | O=C(NCC1CCCO1)C1CCCN(S(=O)(=O)c2ccc(F)cc2)C1 (stereo unspecified) | inconclusive: 2.24 µM [activator, partial curve, poor fit]
32 | CCC(C)NC(=O)c1cc(-c2ccc(OC)cc2)on1 (stereo unspecified) | inconclusive: 32.6 µM [inhibitor, single point]
33 | CC1=C(c2ccc(Cl)cc2)S(=O)(=O)N=C1N1CCN(c2cccc(C(F)(F)F)c2)CC1 | inactive
34 | CCOC(=O)c1c(C)c(C(=O)Nc2ccc(N(C)C)cc2)c(C)n1CC | inconclusive: 7.3 µM [inhibitor, partial curve, poor fit]
35 | COC(=O)c1cc2c(ccn2-c2ccc(F)cc2)n1Cc1ccc(C#N)cc1 | inconclusive: 0.251 µM [inhibitor, full curve, poor fit]
36 | O=C(O)C(Cc1c[nH]c2ccccc12)N1Cc2ccccc2C1=O (stereo unspecified) | inconclusive: 10 µM [activator, partial curve]
37 | Cc1ccc2nc(/C(C#N)=C\c3ccc([N+](=O)[O-])o3)[nH]c2c1 | active: 3.26 µM
38 | CC(=O)Nc1nnc(SCc2ccc(C(=O)Nc3ccccc3F)cc2)s1 | inconclusive: 3.16 µM [inhibitor, single point]
39 | COC(=O)c1cnc(N2CCN(c3ccccc3OC)CC2)c2ccccc12 | inactive
40 | CCCn1cc(CN2CCC(Cc3ccccc3)(C(=O)OCC)CC2)c(C)n1 | inconclusive: 35.5 µM [inhibitor, single point]
41 | COc1ccc(C(=O)NCCSc2ccccc2)cc1 | inconclusive: 7.08 µM [inhibitor, partial curve, poor fit]
